In PMC3077365:

Biological target: LRIM1/APL1C complex, His-tagged (wild type) (Anopheles gambiae)
Test: pull-down; 200 uL each of Sf9 conditioned media (HSV-tagged TEP; His-tagged LRIM1 and/or APL1C alleles) mixed, 0.1% triton X-100, Talon resin, 3 h at room temperature, washed in PBS with 0.1% triton X-100; His-bound material probed with anti-HSV

binding: binds weakly
B1: TEP1, full-length, HSV-tagged (protein, UniProt Q9GYW4 22-1340)
chain: LLVVGPKFIRANQEYTLVISNFNSQLSKVDLLLKLEGETDNGLSVLNVTKMVDVRRNMNRMINFNMPEELTAGNYKITIDGQRGFSFHKEAELVYLSKSISGLIQVDKPVFKPGDTVNFRVILLDTELKPPARVKSVYVTIRDPQRNVIRKWSTAKLYAGVFESDLQIVPTPMLGVWNISVEVEGEELVSKTFEVKEYVLSTFDVQVMPSVIPLEEHQAVNLTIEANYHFGKPVQGVAKVELYLDDDKLNQKKELTVYGKGQVELRFDNFAMDADQQDVRVKVSFIEQYTNRTVVKQSQITVYRYAYRVELIKESPQFRPGLPFKCALQFTHHDGTPAKGITGKVEVSDVGFETTTTSDNDGLIKLELQPSEGTEQLGINFNAVDGFFFYEDVNKVETVTDAYIKLELKSPIKRNKLMRFMVTCTERMTFFVYYVMSKGNIIDAGFMRPNKQTKYLLQLNATEKMIPKAKILIATVAGRTVVYDYADLDFQELRNNFDLSIDEQEIKPGRQIELSMSGRPGAYVGLAAYDKALLLFNKNHDLFWEDIGQVFDGFHAINENEFDIFHSLGLFARTLDDILFDSANEKTGRNALQSGKPIGKLVSYRTNFQESWLWKNVSIGRSGSRKLIEVVPDTTTSWYLTGFSIDPVYGLGIIKKPIQFTTVQPFYIVENLPYSIKRGEAVVLQFTLFNNLGAEYIADVTLYNVANQTEFVGRPDTDLSYTKSVSVPPKVGVPISFLIKARKLGEMAVRVKASIMLGHETDALEKVIRVMPESLAQPKMDTSFFCFDDYKNQTFPFNLDINKKADNGSKKIEFRLNPNLLTMVIKNLDNLLAVPTGCGEQNMVKFVPNILVLDYLYATGSKEQHLIDKATNLLRQGYQNQMRYRQTDGSFGVWEKSGSSVFLTAFVATSMQTASKYMNDIDAAMVEKALDWLASKQHSSGRFDETGKVWHKDMQGGLRNGVALTSYVLTALLENDIAKVKHAVVIQNGMNYLSNQLAFINNPYDLSIATYAMMLNGHTMKKEALDKLIDMSISDNNKKERYWGTTNQIETTAYALLSFVMAEKYLDGIPVMNWLVNQRYVTGSFPRTQDTFVGLKALTKLAEKISPSRNDYTVQLKYKKNTKYFNINSEQIDVQNFLEIPEDTKKLEINVGGIGFGLLEVIYQFDLNLVNFEHRFKLDLEKQNTGSDYELRLRVCANYIPELTDSQSNMALIEVTLPSGYVVDRNPISEQTTVNPIQNMEIRYGGTSVVLYYYKMGTERNCFTVTAYRRFKVALKRPAYVVVYDYYNTNLNAIKVYEVDKQNVCEICEEEDCPAECKK

These are yes or no findings as the source states them, for the method shown. Binding seen in cells or lysates may run through a third protein. Binding can be weak; no strength is given. Sequences can lack the tags named with a protein.
